The values that follow come from the supplement of paper PMC8426693.

The list shows a part of the results.

Some test systems named below: SARS-CoV-2 3'-UTR RNA; SARS-CoV-2 3_SL1 RNA; SARS-CoV-2 3_SL1+2 RNA; SARS-CoV-2 3_SL2 RNA; SARS-CoV-2 3_s2m RNA; SARS-CoV-2 3_SL3base RNA.
Experiment in all cases: NMR binding call after quantification (hit when 2 of 3 NMR criteria are met) (binary (1 = binding, 0 = not binding)); higher = binding
Holding throughout (details): RNA concentration 10 µM; fragment concentration 200 µM; 293 K

`CNC1CCCN(c2cccnn2)C1` (stereo not drawn): the NMR binding call in the assay with SARS-CoV-2 3'-UTR RNA, in the assay on SARS-CoV-2 3_SL1 RNA, in the assay with SARS-CoV-2 3_SL1+2 RNA, in the assay on SARS-CoV-2 3_SL2 RNA and in the assay on SARS-CoV-2 3_s2m RNA was 0 each time.

On to `CC(C)NC(=O)c1ccc2ccccc2n1`, for which the NMR binding call in the assay on SARS-CoV-2 3'-UTR RNA is 1; with SARS-CoV-2 3_SL1 RNA, 0; in the assay on SARS-CoV-2 3_SL1+2 RNA, 0; in the assay with SARS-CoV-2 3_SL2 RNA, 0; with SARS-CoV-2 3_SL3base RNA, 0; in the assay on SARS-CoV-2 3_s2m RNA, 0.

Take `COc1ccc(C(=O)NCC(N)=O)cc1`: the NMR binding call in the assay on SARS-CoV-2 3'-UTR RNA, in the assay on SARS-CoV-2 3_SL1 RNA, with SARS-CoV-2 3_SL1+2 RNA, in the assay on SARS-CoV-2 3_SL2 RNA and with SARS-CoV-2 3_s2m RNA was 0 in each case.

Turning to `CC(O)CNC1CCCCC1` (stereo not drawn), the NMR binding call with SARS-CoV-2 3'-UTR RNA, in the assay with SARS-CoV-2 3_SL1 RNA, in the assay with SARS-CoV-2 3_SL1+2 RNA, with SARS-CoV-2 3_SL2 RNA, in the assay with SARS-CoV-2 3_SL3base RNA and in the assay with SARS-CoV-2 3_s2m RNA was 0 in each case.

In the case of `COC(=O)c1ccncc1`, the NMR binding call with SARS-CoV-2 3'-UTR RNA, in the assay with SARS-CoV-2 3_SL1 RNA, in the assay with SARS-CoV-2 3_SL1+2 RNA, with SARS-CoV-2 3_SL2 RNA, in the assay with SARS-CoV-2 3_SL3base RNA and with SARS-CoV-2 3_s2m RNA was 0 each time.

In the case of `CC(=O)NCCN1CCCCCC1`, the NMR binding call in the assay on SARS-CoV-2 3'-UTR RNA, in the assay with SARS-CoV-2 3_SL1 RNA, with SARS-CoV-2 3_SL1+2 RNA, with SARS-CoV-2 3_SL2 RNA, with SARS-CoV-2 3_SL3base RNA and in the assay with SARS-CoV-2 3_s2m RNA was 0 each time.

As for `CC(NC(=O)C1CCCC1)C(=O)O` (stereo not drawn), the NMR binding call in the assay on SARS-CoV-2 3'-UTR RNA, with SARS-CoV-2 3_SL1 RNA, in the assay with SARS-CoV-2 3_SL1+2 RNA, in the assay with SARS-CoV-2 3_SL2 RNA, in the assay with SARS-CoV-2 3_SL3base RNA and with SARS-CoV-2 3_s2m RNA was 0 each time.

With `Nc1cc(C(F)(F)F)ccc1N1CCCCC1`, the NMR binding call in the assay on SARS-CoV-2 3'-UTR RNA, in the assay with SARS-CoV-2 3_SL1 RNA, with SARS-CoV-2 3_SL1+2 RNA, in the assay with SARS-CoV-2 3_SL2 RNA, in the assay on SARS-CoV-2 3_SL3base RNA and with SARS-CoV-2 3_s2m RNA was 0 throughout.

For the molecule `CC1(C)CN(C(=O)CC(F)(F)F)CCO1`, the NMR binding call in the assay with SARS-CoV-2 3'-UTR RNA, with SARS-CoV-2 3_SL1 RNA, with SARS-CoV-2 3_SL1+2 RNA, in the assay with SARS-CoV-2 3_SL2 RNA, in the assay with SARS-CoV-2 3_SL3base RNA and in the assay with SARS-CoV-2 3_s2m RNA was 0 each time.

As to `N#Cc1cccc(NC(=O)CCC2CCCC2)c1`, the NMR binding call in the assay on SARS-CoV-2 3'-UTR RNA, in the assay on SARS-CoV-2 3_SL1 RNA, with SARS-CoV-2 3_SL1+2 RNA, in the assay on SARS-CoV-2 3_SL3base RNA and in the assay with SARS-CoV-2 3_s2m RNA was 0 throughout.

With `OCc1cn(-c2ccc(Cl)cc2)nn1`, the NMR binding call with SARS-CoV-2 3'-UTR RNA, in the assay with SARS-CoV-2 3_SL1 RNA, in the assay on SARS-CoV-2 3_SL1+2 RNA, with SARS-CoV-2 3_SL2 RNA and with SARS-CoV-2 3_s2m RNA was 0 in each case.

Turning to `COc1ccc(C)cc1NC(=O)CN.Cl`, the NMR binding call in the assay on SARS-CoV-2 3'-UTR RNA, in the assay on SARS-CoV-2 3_SL1 RNA, in the assay on SARS-CoV-2 3_SL1+2 RNA, with SARS-CoV-2 3_SL2 RNA, in the assay on SARS-CoV-2 3_SL3base RNA and in the assay with SARS-CoV-2 3_s2m RNA was 0 throughout.

`CC1CCN(C(=O)c2cc3ccccc3o2)CC1`: the NMR binding call with SARS-CoV-2 3'-UTR RNA, with SARS-CoV-2 3_SL1 RNA, in the assay with SARS-CoV-2 3_SL1+2 RNA, in the assay with SARS-CoV-2 3_SL2 RNA and in the assay with SARS-CoV-2 3_s2m RNA was 0 each time.

As to `CCCn1nccc1-c1ccncc1`, the NMR binding call with SARS-CoV-2 3'-UTR RNA, with SARS-CoV-2 3_SL1 RNA, in the assay with SARS-CoV-2 3_SL1+2 RNA, with SARS-CoV-2 3_SL2 RNA and with SARS-CoV-2 3_s2m RNA was 0 throughout.

Regarding `CN(C1CCCCCC1)S(C)(=O)=O`, the NMR binding call with SARS-CoV-2 3'-UTR RNA, in the assay on SARS-CoV-2 3_SL1 RNA, in the assay on SARS-CoV-2 3_SL1+2 RNA, in the assay on SARS-CoV-2 3_SL2 RNA, in the assay with SARS-CoV-2 3_SL3base RNA and with SARS-CoV-2 3_s2m RNA was 0 in each case.

Turning to `CCOc1ccc(C(N)=O)cn1`, the NMR binding call in the assay on SARS-CoV-2 3'-UTR RNA, in the assay on SARS-CoV-2 3_SL1 RNA, with SARS-CoV-2 3_SL1+2 RNA, with SARS-CoV-2 3_SL2 RNA, in the assay on SARS-CoV-2 3_SL3base RNA and with SARS-CoV-2 3_s2m RNA was 0 throughout.

`C1CC(Cc2nc(C3CC3)no2)CCN1`: the NMR binding call in the assay on SARS-CoV-2 3'-UTR RNA, in the assay with SARS-CoV-2 3_SL1 RNA, with SARS-CoV-2 3_SL1+2 RNA, with SARS-CoV-2 3_SL2 RNA, in the assay on SARS-CoV-2 3_SL3base RNA and with SARS-CoV-2 3_s2m RNA was 0 each time.

For `CCn1cc(NC(=O)C2CCC2)cn1`, the NMR binding call with SARS-CoV-2 3'-UTR RNA, in the assay on SARS-CoV-2 3_SL1 RNA, in the assay on SARS-CoV-2 3_SL1+2 RNA, in the assay on SARS-CoV-2 3_SL2 RNA, with SARS-CoV-2 3_SL3base RNA and with SARS-CoV-2 3_s2m RNA was 0 in each case.

Take `C1CN(Cc2nc(C3CC3)no2)CCO1`: the NMR binding call with SARS-CoV-2 3'-UTR RNA, with SARS-CoV-2 3_SL1 RNA, with SARS-CoV-2 3_SL1+2 RNA, with SARS-CoV-2 3_SL2 RNA, in the assay on SARS-CoV-2 3_SL3base RNA and in the assay with SARS-CoV-2 3_s2m RNA was 0 each time.
